At least one compound was matched to its structure with a doubt left.
Tested on: regenerating zebrafish heart
Assay: Zebrafish heart amputation with Tipifarnib injections
Format: in vivo
Conditions: amputated fish, 0.02 mg/animal intraperitoneal every 2 days for 14 days

Cn1cncc1[C@@](N)(c1ccc(Cl)cc1)c1ccc2c(c1)c(-c1cccc(Cl)c1)cc(=O)n2C [Tipifarnib]
cardiomyocyte proliferation (BrDU incorporation): dramatically reduced cardiomyocyte proliferation | heart regeneration: dramatically reduced cardiomyocyte proliferation and heart regeneration | scarring (Masson's Trichromic staining): leading to scarring | cardiomyocyte proliferation (BrDU incorporation) (listed as tipifarnib): decreasing the number of proliferating cardiomyocytes | heart regeneration (listed as tipifarnib): significantly impaired heart regeneration

Source: US9220721B2, “Methods for heart regeneration” (The Salk Institute for Biological Studies, priority 2012, dated 2015)
